Test results reported in the supplement of paper PMC3334620.
Over roughly 33,000 sequences, “E-score (-0.5 to 0.5)” has its median near -0.0059; the highest 2% begin near 0.26. Some of the results follow.

Molecular target: T1, Cin5 (UniProt P40917)
T1 sequence: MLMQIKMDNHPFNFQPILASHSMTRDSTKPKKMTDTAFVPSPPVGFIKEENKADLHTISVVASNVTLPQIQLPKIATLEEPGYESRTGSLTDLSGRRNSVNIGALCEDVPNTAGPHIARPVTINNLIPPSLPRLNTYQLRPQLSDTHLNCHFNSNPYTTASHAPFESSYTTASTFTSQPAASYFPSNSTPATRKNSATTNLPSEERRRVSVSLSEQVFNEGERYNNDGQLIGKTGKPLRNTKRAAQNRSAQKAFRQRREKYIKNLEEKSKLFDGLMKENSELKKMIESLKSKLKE
Assay: PBM E-score (8-mer binding enrichment) (E-score (-0.5 to 0.5)); higher = stronger / more preferred TF binding
Conditions: protein concentration: 100 nM; construct: GST-full length
In short: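 GST-tagged yeast TFs (full-length or DNA-binding domain) were made by PURExpress in vitro transcription/translation and applied at about 100-200 nM to universal all-10-mer Agilent arrays. The arrays were made double-stranded by primer extension, on fresh or once-stripped slides. Bound protein was detected with fluorescent anti-GST, and scans were normalised with masliner. Each ungapped eight-base word, pooled with its reverse complement, received an E-score (modified Wilcoxon-Mann-Whitney statistic) from the Universal PBM Analysis Suite.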

Row | Sequence | PBM E-score
1 | AGATTCCG | 0.226
2 | GGTCCTTA | 0.0773
3 | ATGGGATA | 0.0461
4 | GAAAACCA | -0.0853
5 | ATCGCATA | 0.128
6 | TGACTCAA | -0.0918
7 | ATCCAAAT | 0.123
8 | ATTCAAGA | -0.0507
9 | GACGAACA | -0.0658
10 | CAAAAGGA | -0.0523
11 | CGCACATA | -0.122
12 | AGAGAGCT | -0.265
13 | CCAGGCCG | -0.255
14 | AGTTGGGG | 0.125
15 | GTCCTCAC | -0.088
16 | ATAGGCCC | -0.229
17 | AAGCAATA | 0.192
18 | AACGGCTA | -0.0303
19 | CTCGTCTA | -0.132
20 | AAGTACAC | 0.0965
21 | GGCAGAAA | 0.246
22 | CGCTAGTC | -0.344
23 | ATGGAGTA | 0.17
24 | AGGAGAAC | -0.165
25 | CGTTGTAC | -0.0451

Row | Sequence | PBM E-score
26 | ATCCAGCA | -0.0465
27 | CCGCATAC | 0.072
28 | GGTCAGCA | 0.179
29 | GCGTATAC | -0.017
30 | ATGTGCTC | 0.136
31 | ATCCCATG | 0.0696
32 | CAACGTCG | 0.0109
33 | GACGCGGA | -0.186
34 | ATACACTC | 0.0232
35 | CTCAAGGC | -0.135
36 | GTGAGGGA | -0.147
37 | TAAGCACA | 0.314
38 | GTCCTCAA | -0.026
39 | AATTCTGA | 0.0664
40 | CGGGTCCC | -0.337
41 | GGTTTGGA | 0.075
42 | CATATTAA | 0.275
43 | ACAGCCGG | 0.154
44 | ACCAAGCA | 0.0042
45 | ACCGCCTA | -0.033
46 | ACAGCACC | -0.189
47 | AGTTATGC | 0.199
48 | CCATTTTC | 0.108
49 | AAGCTCGA | 0.0447
50 | ACTGTTAC | 0.107

Row | Sequence | PBM E-score
51 | CAGTGAAA | 0.144
52 | ATGTCTGA | -0.0325
53 | ATGTCGTG | -0.113
54 | AGTTATAA | 0.0215
55 | CTAATTCA | 0.0323
56 | CGTACAAG | -0.105
57 | CGCATGTA | -0.128
58 | ACCGCCAG | 0.00975
59 | GAAAGTAA | 0.014
60 | AAGTGACG | -0.00882
61 | ACATCGGT | -0.157
62 | AAGAGCAA | -0.0829
63 | CCCATAGA | -0.0678
64 | GTGCGCAC | 0.15
65 | CGCTAAAA | 0.0258
66 | AATGACAT | 0.149
67 | TAAAGTAA | 0.153
68 | ACCTCAAG | 0.00049
69 | CATTGAAC | 0.0943
70 | CTTGACCC | -0.107
71 | AGATCAGG | -0.207
72 | GTTCTATA | 0.103
73 | CTTCATGC | 0.011
74 | AGCGTCAC | -0.173
75 | GAGTCGAA | 0.0501

Rewritten in CSV form: entries from further up.
Row,Sequence,PBM E-score
55,CTAATTCA,0.0323
56,CGTACAAG,-0.105

Next entries.

Row | Sequence | PBM E-score
76 | ATGATTCC | 0.21
77 | CCCCCCTA | -0.378
78 | CGCATATA | -0.0438
79 | GGCGCGTA | -0.042
80 | GATATTCC | 0.0678
81 | TATGCACA | 0.154
82 | ACTTTACC | 0.159
83 | TGGGATAA | 0.0119
84 | TCCTAGGA | -0.0366
85 | CCTGATAG | -0.0617
86 | ATCGGTCC | -0.118
87 | GTCTCGGA | -0.0676
88 | AGGCTTGC | -0.244
89 | AGAGCTCG | -0.0777
90 | CTTCAGGA | -0.0963
91 | AGTCAAAA | -0.00519
92 | CCAGCATA | 0.0172
93 | ACACTTCA | 0.0375
94 | CTGGAAAA | 0.0379
95 | CTAGTTAA | 0.196
96 | CTGCGGAC | -0.243
97 | ACTGCAGA | -0.133
98 | AACTCGGC | 0.121
99 | GGGTCCAC | -0.345
100 | ACCACAGC | -0.105

A few values from the results shown.
Value of AGAGCTCG under PBM E-score: -0.0777
Value of CTAGTTAA under PBM E-score: 0.196
Value of CTTCAGGA under PBM E-score: -0.0963
Value of GTCTCGGA under PBM E-score: -0.0676

(list continues)

Row | Sequence | PBM E-score
101 | CAGGGGTC | -0.113
102 | CCTCGTCG | -0.0293
103 | TGGAGCCA | -0.184
104 | AGATAGGC | 0.0182
105 | TACTAAGA | 0.159
106 | AAGACTGG | -0.0902
107 | CGACAGAG | -0.0762
108 | CGAGTCCG | -0.0724
109 | GGAGCAGA | -0.0793
110 | AGAAGGTC | 0.124
111 | GCCGAGGA | 0.0418
112 | GAGGTGGA | -0.266
113 | ACCGAAGG | -0.0714
114 | AGAAGTAT | 0.208
115 | CGCGTAGA | 0.163
116 | AGCACGGG | -0.0799
117 | CATACCTA | 0.0379
118 | ACGTGCCG | -0.117
119 | CAATAGAG | -0.0705
120 | TCGTGACA | -0.0894
121 | CCCCCGGG | -0.313
122 | TAGATTGA | 0.0852
123 | CCATATCG | 0.128
124 | ACTAAGCC | 0.17
125 | CCTTATAG | -0.0207

Row | Sequence | PBM E-score
126 | ACCCTTCA | -0.0414
127 | TCTCCCCA | 0.0223
128 | GGCCGGTA | -0.0213
129 | TAAGGGTA | -0.0583
130 | ATGCCGGA | -0.149
131 | CAATAACC | 0.116
132 | GAAACAGA | 0.0464
133 | TACCCACA | 0.0586
134 | CTGCCGGC | -0.126
135 | GTGGAACA | 0.0035
136 | GGGGTCAC | -0.128
137 | AACTACTT | 0.142
138 | CAAGCGGG | -0.11
139 | AGAAATTA | 0.213
140 | CAACGAAC | 0.103
141 | AGAGGAGA | -0.363
142 | CACAGGTA | 0.0741
143 | CTACCTAC | 0.104
144 | CACCTTGG | -0.112
145 | ACGTGGGC | -0.156
146 | GCAGGCTA | -0.195
147 | CTGCCGGA | 0.0162
148 | ATTTCCGG | 0.243
149 | ATCTTCAG | 0.107
150 | GTGTGGCA | -0.0538

Row | Sequence | PBM E-score
151 | AAATTGGT | 0.159
152 | AACCGAAT | 0.106
153 | ATCTGTCA | 0.162
154 | GCAAGTAA | 0.176
155 | CTCGATTC | 0.119
156 | ATTACGCC | 0.0314
157 | ATGGCTTC | -0.0948
158 | ACTGAGAC | -0.137
159 | CTGCGAGC | 0.0862
160 | AAATATCC | 0.0468
161 | ACGCCGAC | 0.0337
162 | TCGGTTAA | 0.128
163 | CGGGTGGA | 0.029
164 | ATGCCGAG | -0.0931
165 | CCGGCTCA | 0.0475
166 | ATACCTTC | 0.0246
167 | TGGTTACA | -0.035
168 | ACCAGAAG | -0.0829
169 | ACAGACTA | -0.0705
170 | ACCTTCAG | -0.0671
171 | CAGGCCGC | -0.205
172 | GTAAATTA | 0.192
